{
  "source": "ChEMBL document CHEMBL1153370",
  "about": "“New pyridazine derivatives: synthesis, chemistry and biological activity” (2009)",
  "test_system": "Candida albicans",
  "test": "Antifungal activity Candida albicans ATCC 10231 at 100 ug/disk after 48 hrs at 28 degC by agar diffusion technique",
  "assay_type": "functional, organism-based",
  "data": [
    {"sequence": "NYSTATIN", "values": [
      {"measurement": "inhibition zone (IZ)", "value": 29, "unit": "mm"}
    ]}
  ]
}
